The source of these data is paper PMC5309790.

In test [1] the target is T1, TNF receptor 1 (TNFR1), endogenous in L929 cells (mouse (endogenous in L929)) (UniProt P25118).
T1 sequence: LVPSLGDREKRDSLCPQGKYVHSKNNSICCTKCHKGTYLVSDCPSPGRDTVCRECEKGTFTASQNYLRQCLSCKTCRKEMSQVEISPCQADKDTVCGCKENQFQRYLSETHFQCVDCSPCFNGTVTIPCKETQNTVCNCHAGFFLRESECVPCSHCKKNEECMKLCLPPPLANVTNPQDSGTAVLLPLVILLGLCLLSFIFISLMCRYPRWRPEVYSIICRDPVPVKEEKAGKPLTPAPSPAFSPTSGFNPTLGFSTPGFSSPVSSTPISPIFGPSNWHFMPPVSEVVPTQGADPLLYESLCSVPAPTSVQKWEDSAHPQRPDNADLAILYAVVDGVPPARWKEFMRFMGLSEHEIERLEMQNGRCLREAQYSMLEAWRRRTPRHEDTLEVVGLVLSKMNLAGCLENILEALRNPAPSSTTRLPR
In words: co-IP; complex I immunoprecipitation from RIP1 KO L929 cells reconstituted with RIP1 variants; cells treated with 10 ng/ml Flag-mTNF, lysate precipitated with anti-Flag M2 beads at 4 °C overnight, western blotting. A general note: A western blot detects proteins with antibodies after separation by electrophoresis.

In test [2] the target is T2, Flag-RIP1 (Flag tag knocked in at the N-terminal of Rip1 in L929 cells) (mouse (endogenous in L929)) (UniProt Q60855).
T2 sequence: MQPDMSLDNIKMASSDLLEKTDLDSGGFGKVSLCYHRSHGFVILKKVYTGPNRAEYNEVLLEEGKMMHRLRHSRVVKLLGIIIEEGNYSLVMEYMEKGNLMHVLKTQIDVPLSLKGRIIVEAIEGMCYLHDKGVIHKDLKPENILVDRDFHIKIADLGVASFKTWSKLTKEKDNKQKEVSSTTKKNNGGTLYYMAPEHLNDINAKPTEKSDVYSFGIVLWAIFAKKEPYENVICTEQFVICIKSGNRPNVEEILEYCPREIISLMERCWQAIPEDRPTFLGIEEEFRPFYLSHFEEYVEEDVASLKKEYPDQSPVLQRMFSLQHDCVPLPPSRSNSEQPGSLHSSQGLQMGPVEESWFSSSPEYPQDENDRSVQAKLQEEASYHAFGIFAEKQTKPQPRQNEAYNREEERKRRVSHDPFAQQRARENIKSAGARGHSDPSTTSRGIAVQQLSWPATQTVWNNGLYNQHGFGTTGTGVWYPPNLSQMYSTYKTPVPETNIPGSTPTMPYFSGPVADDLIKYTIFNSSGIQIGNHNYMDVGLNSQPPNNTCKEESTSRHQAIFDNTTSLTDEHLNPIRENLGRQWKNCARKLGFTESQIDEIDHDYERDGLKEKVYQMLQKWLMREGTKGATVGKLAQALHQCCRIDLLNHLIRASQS
In words: co-IP; necrosome immunoprecipitation from L929 cells (Flag-RIP1 knock-in or RIP1 KO reconstituted with RIP1 variants) treated with mTNF + zVAD, with or without BHA/amytal; anti-Flag M2 beads at 4 °C overnight; blots with anti-RIP1, anti-RIP3, anti-FADD.

The target of test [3] is T3, Flag-tagged KK-AT RIP1 expressed in RIP1 KO HEK293T cells (mouse) (UniProt Q60855).
T3 sequence: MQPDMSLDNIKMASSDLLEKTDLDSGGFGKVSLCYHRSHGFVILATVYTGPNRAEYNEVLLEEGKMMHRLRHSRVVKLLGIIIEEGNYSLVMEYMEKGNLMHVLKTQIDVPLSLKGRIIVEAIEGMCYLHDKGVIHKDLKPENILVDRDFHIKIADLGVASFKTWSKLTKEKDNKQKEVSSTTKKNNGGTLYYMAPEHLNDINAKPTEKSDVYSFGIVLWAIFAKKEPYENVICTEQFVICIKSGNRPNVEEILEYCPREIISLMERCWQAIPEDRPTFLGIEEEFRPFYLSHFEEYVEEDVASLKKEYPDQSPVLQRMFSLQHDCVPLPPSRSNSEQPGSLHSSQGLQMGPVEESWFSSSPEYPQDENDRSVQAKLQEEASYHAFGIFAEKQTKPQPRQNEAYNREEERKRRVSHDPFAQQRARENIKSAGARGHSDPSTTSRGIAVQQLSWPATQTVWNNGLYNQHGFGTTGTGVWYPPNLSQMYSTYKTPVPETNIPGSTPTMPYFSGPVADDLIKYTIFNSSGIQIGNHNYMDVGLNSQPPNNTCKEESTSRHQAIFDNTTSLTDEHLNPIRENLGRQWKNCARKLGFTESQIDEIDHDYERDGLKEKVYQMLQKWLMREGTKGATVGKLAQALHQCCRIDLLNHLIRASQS
In words: co-IP; co-expression in RIP1 KO HEK293T cell line and co-immunoprecipitation; details in Supplementary Fig. 7, not shown.

Test [4] concerns the target T4, Flag-tagged WT RIP1 expressed in RIP1 KO HEK293T cells (mouse) (UniProt Q60855).
T4 sequence: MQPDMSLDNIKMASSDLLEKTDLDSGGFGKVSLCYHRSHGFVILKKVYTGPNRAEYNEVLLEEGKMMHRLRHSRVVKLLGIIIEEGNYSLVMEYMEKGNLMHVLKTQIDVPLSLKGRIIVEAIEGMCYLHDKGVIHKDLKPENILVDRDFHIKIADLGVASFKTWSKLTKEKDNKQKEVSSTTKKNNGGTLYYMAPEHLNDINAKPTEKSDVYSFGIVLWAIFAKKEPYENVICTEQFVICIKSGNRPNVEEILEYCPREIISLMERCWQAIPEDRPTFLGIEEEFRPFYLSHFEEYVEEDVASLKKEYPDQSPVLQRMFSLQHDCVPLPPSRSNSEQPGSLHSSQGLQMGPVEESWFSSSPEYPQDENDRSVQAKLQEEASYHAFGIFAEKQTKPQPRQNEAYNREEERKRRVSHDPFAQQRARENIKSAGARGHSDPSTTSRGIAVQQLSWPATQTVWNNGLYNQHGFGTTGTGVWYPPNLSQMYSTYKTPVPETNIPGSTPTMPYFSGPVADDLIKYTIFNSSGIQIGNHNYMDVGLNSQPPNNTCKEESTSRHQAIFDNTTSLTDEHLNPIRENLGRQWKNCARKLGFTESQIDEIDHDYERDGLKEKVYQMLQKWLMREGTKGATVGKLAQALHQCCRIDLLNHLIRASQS
Described as above.

Test [5] concerns the target T5, KK-AT-S161E RIP1 co-expressed in RIP1 KO HEK293T cells (mouse) (UniProt Q60855).
T5 sequence: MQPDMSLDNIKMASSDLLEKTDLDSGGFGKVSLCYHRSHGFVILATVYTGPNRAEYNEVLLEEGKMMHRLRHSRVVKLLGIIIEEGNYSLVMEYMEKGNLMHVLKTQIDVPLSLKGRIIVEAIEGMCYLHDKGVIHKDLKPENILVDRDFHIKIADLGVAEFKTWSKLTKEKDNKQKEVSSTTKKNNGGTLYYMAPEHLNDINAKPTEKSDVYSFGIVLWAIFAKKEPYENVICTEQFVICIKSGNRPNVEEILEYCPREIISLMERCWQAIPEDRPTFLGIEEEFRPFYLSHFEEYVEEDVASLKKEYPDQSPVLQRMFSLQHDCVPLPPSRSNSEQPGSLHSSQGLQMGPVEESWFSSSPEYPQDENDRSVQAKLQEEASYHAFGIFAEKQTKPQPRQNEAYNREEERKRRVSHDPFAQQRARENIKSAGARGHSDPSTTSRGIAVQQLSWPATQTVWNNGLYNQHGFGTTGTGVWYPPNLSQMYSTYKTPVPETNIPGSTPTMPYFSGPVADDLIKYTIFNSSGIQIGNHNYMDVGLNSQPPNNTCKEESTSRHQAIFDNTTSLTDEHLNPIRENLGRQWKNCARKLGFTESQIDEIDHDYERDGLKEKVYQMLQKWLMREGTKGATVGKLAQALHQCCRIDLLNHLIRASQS
The description is as above.

These are yes or no findings as the source states them, for the method shown. Binding seen in cells or lysates may run through a third protein. Some binding calls cover weakened binding; strength is not graded here. For some assays here: Where a sequence is shown, tags or fusion partners need not be part of it.

B1: TRAF2, endogenous in L929 cells (protein, UniProt P39429 1-501)
chain: MAAASVTSPGSLELLQPGFSKTLLGTRLEAKYLCSACKNILRRPFQAQCGHRYCSFCLTSILSSGPQNCAACVYEGLYEEGISILESSSAFPDNAARREVESLPAVCPNDGCTWKGTLKEYESCHEGLCPFLLTECPACKGLVRLSEKEHHTEQECPKRSLSCQHCRAPCSHVDLEVHYEVCPKFPLTCDGCGKKKIPRETFQDHVRACSKCRVLCRFHTVGCSEMVETENLQDHELQRLREHLALLLSSFLEAQASPGTLNQVGPELLQRCQILEQKIATFENIVCVLNREVERVAVTAEACSRQHRLDQDKIEALSNKVQQLERSIGLKDLAMADLEQKVSELEVSTYDGVFIWKISDFTRKRQEAVAGRTPAIFSPAFYTSRYGYKMCLRVYLNGDGTGRGTHLSLFFVVMKGPNDALLQWPFNQKVTLMLLDHNNREHVIDAFRPDVTSSSFQRPVSDMNIASGCPLFCPVSKMEAKNSYVRDDAIFIKAIVDLTGL
For B1, in test [1], the binding result was “binds”.

B2: FADD, endogenous in L929 cells (protein, UniProt Q61160 1-205)
chain: MDPFLVLLHSLSGSLSGNDLMELKFLCRERVSKRKLERVQSGLDLFTVLLEQNDLERGHTGLLRELLASLRRHDLLQRLDDFEAGTATAAPPGEADLQVAFDIVCDNVGRDWKRLARELKVSEAKMDGIEEKYPRSLSERVRESLKVWKNAEKKNASVAGLVKALRTCRLNLVADLVEEAQESVSKSENMSPVLRDSTVSSSETP
As to B2, in test [2], the binding result is listed as “binds”.

B3: FADD co-expressed with RIP1 in RIP1 KO HEK293T cells (protein, UniProt Q61160 1-205)
chain: MDPFLVLLHSLSGSLSGNDLMELKFLCRERVSKRKLERVQSGLDLFTVLLEQNDLERGHTGLLRELLASLRRHDLLQRLDDFEAGTATAAPPGEADLQVAFDIVCDNVGRDWKRLARELKVSEAKMDGIEEKYPRSLSERVRESLKVWKNAEKKNASVAGLVKALRTCRLNLVADLVEEAQESVSKSENMSPVLRDSTVSSSETP
Regarding B3, the binding result in test [3], in test [4] and in test [5] was “binds” throughout.
